Laboratory results: the supplement of paper PMC6411743
± gives the standard deviation of the averaged measurements. Only a part is listed here, and it is no random draw. Most values lie at the level of the controls, where differences are scatter.

Sequences of proteins named here, by UniProt entry; tags and fusion partners are left off. A change or cut given only in a name is not applied to a line headed by its entry.
UniProt Q6FIF0: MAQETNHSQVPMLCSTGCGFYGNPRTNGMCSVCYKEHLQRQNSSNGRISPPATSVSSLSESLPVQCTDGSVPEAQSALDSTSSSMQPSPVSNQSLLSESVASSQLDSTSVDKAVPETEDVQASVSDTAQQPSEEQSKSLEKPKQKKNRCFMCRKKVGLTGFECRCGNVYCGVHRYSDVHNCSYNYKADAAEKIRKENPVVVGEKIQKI
UniProt Q6IN84: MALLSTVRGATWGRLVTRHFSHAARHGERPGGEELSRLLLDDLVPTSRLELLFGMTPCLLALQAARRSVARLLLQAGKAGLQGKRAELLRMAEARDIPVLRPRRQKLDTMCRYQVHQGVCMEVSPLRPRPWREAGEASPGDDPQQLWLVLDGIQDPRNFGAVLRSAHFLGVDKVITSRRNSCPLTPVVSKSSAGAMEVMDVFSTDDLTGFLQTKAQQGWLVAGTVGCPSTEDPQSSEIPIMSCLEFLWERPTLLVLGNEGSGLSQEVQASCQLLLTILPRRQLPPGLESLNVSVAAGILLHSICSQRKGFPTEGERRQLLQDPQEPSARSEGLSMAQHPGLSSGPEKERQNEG
UniProt Q53ET0: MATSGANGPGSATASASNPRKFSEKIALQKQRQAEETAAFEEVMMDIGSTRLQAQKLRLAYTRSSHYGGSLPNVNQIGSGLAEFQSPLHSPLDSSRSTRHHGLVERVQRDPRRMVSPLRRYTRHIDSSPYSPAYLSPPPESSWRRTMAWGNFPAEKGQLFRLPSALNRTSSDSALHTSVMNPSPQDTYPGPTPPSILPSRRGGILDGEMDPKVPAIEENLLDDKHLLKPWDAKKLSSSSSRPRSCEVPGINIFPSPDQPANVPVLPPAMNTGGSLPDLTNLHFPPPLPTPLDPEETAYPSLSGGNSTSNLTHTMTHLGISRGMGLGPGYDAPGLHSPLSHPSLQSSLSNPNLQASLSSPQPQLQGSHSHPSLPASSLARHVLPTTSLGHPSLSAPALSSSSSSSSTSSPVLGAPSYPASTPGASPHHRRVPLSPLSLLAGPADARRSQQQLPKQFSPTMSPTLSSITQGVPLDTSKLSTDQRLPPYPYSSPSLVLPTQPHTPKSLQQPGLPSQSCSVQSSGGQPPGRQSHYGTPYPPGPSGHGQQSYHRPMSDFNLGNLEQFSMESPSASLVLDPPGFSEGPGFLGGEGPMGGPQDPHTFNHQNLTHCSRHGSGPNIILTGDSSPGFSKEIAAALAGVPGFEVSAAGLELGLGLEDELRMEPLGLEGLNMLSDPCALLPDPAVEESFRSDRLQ
UniProt Q66LE6: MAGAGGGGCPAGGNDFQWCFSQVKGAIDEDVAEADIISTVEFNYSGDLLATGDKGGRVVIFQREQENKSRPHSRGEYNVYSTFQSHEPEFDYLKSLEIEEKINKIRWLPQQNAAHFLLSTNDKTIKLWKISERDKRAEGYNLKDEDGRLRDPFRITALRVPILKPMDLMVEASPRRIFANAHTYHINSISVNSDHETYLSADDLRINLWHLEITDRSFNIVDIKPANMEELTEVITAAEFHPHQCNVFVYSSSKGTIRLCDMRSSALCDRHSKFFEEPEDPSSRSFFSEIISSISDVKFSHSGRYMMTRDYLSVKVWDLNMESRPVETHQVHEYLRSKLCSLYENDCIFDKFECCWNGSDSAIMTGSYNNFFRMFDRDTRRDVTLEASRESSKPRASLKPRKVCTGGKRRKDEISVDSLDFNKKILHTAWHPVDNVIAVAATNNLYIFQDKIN
UniProt Q6PCB7: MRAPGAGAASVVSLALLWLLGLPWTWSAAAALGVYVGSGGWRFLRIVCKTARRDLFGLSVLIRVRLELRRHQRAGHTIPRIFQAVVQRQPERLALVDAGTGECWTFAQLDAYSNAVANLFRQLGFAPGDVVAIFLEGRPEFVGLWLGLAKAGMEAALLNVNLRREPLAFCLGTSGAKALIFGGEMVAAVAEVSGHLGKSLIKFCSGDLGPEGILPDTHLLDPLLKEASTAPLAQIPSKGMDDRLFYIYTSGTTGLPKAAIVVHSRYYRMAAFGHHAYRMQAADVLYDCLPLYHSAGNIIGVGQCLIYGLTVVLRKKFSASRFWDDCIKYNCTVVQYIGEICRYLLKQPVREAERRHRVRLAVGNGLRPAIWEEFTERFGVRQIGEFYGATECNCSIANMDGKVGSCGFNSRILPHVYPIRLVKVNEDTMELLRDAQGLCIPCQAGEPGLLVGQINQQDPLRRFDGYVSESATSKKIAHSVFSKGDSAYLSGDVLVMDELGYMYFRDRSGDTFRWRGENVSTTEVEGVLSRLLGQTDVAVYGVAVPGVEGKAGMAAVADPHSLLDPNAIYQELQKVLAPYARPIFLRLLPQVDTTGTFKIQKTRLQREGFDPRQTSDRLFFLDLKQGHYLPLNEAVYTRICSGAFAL
UniProt Q6GQQ9: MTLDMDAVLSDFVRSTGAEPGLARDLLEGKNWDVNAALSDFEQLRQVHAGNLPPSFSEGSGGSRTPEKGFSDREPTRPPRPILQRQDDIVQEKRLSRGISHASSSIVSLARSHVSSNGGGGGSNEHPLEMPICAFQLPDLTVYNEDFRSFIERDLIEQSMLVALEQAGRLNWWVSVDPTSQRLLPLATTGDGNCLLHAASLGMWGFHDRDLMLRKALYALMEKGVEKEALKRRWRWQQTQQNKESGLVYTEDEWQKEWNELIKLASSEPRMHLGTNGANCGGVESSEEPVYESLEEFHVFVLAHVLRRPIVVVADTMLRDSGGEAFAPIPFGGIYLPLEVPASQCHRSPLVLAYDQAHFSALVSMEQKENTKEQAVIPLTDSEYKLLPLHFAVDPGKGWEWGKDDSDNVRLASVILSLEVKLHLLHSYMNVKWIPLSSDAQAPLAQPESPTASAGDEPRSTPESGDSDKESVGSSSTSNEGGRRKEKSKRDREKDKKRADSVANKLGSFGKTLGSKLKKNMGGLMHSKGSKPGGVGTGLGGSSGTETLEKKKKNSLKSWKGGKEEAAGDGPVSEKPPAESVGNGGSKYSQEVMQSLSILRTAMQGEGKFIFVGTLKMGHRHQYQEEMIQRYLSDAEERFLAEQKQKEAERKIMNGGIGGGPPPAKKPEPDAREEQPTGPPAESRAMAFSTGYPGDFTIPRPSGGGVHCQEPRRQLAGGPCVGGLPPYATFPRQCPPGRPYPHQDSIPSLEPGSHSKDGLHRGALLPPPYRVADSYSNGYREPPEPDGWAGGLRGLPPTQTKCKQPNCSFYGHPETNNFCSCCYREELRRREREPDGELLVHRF
UniProt Q5VZE5: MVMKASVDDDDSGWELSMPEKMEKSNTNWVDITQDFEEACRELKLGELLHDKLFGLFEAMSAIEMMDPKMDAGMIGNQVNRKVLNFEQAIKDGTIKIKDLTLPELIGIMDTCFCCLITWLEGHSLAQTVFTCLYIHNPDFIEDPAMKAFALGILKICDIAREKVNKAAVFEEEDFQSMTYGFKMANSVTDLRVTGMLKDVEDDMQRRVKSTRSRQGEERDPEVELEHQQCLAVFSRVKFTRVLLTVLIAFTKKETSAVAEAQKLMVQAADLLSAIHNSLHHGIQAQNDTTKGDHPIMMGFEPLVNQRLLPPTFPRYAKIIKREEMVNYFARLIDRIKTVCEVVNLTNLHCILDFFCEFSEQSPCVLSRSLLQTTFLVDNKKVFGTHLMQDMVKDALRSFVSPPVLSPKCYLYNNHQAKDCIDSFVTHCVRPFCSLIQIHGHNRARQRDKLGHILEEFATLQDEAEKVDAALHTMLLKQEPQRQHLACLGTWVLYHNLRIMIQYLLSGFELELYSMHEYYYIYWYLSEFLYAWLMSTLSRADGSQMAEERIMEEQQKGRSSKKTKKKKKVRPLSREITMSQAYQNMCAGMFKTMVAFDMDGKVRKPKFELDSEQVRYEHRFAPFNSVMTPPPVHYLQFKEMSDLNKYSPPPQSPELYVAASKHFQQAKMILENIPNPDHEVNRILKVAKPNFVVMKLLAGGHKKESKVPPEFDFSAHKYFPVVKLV
UniProt Q5SY16: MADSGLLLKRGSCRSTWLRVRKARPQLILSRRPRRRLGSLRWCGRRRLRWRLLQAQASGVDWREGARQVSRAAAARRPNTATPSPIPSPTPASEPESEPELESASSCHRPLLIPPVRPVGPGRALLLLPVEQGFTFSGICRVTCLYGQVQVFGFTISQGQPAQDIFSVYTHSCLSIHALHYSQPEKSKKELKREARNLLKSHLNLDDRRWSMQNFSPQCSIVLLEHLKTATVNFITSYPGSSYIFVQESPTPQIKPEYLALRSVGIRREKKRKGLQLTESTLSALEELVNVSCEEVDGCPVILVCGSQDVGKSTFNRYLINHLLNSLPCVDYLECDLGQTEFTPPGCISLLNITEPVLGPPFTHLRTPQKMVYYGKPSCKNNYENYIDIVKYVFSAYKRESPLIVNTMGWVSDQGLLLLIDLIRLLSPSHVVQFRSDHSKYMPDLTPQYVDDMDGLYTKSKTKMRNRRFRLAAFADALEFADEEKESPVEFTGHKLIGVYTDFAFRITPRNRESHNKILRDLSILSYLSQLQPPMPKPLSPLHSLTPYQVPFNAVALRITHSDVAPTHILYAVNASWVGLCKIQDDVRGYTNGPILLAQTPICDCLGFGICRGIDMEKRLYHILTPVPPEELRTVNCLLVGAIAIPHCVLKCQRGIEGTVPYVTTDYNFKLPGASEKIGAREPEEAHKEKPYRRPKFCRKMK
UniProt Q66K64, whole entry: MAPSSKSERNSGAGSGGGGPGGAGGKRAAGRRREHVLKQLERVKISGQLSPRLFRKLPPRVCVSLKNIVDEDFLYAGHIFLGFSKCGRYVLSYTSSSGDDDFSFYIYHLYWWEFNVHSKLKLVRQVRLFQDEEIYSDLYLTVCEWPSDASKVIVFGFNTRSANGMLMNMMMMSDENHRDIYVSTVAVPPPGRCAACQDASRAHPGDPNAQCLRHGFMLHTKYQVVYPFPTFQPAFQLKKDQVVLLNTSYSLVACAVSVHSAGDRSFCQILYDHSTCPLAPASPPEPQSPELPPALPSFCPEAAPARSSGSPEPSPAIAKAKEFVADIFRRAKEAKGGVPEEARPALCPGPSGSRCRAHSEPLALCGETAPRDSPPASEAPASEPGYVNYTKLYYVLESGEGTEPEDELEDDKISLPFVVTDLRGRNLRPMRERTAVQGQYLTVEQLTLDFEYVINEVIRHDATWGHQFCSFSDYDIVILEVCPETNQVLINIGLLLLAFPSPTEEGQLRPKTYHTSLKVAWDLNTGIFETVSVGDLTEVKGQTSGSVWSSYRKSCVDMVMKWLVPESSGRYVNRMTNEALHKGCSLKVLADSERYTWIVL
UniProt Q5VWG9, whole entry: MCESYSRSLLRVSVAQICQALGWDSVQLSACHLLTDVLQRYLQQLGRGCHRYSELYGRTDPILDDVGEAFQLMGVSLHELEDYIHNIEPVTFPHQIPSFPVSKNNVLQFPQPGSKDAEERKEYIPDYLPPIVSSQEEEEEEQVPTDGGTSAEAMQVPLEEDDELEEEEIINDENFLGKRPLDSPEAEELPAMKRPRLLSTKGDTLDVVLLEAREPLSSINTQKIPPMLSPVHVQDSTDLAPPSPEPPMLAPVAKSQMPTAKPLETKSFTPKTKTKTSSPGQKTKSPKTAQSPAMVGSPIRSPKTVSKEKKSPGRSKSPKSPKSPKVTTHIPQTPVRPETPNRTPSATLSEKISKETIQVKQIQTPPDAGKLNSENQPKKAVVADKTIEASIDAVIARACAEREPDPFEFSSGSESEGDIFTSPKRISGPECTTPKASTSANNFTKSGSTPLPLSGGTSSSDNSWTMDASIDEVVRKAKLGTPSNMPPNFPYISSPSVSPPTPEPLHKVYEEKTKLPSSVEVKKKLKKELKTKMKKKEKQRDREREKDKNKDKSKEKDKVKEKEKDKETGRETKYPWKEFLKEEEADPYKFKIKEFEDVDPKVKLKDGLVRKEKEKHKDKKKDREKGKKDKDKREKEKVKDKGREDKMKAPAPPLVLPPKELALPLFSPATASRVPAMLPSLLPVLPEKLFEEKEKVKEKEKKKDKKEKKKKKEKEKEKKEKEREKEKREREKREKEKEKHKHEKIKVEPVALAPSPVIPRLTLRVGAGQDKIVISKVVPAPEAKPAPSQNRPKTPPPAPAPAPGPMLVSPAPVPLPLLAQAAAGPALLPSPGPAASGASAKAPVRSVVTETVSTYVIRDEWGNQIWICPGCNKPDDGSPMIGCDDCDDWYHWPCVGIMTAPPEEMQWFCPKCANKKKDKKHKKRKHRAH
UniProt Q53S33: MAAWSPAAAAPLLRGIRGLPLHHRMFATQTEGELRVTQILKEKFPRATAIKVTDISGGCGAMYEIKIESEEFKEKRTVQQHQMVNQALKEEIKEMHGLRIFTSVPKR
UniProt Q5RI15: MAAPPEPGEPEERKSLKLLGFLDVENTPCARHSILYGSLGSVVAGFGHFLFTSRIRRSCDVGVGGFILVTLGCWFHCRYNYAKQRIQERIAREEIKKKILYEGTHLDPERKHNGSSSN
UniProt Q4LDG9: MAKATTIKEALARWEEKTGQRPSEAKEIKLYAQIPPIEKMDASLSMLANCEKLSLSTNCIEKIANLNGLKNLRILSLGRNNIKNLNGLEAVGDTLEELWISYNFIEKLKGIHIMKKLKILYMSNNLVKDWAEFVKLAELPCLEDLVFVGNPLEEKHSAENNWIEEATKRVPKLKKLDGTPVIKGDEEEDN

Compound: Nc1ncnc2c1ncn2[C@@H]1O[C@H](COP(=O)(O)OP(=O)(O)OP(=O)(O)O)[C@@H](O)[C@H]1O [adenosine triphosphate]
Experiment: NP40-soluble protein abundance relative to vehicle (solubility fold change) (ratio); higher = more soluble protein in presence of ATP
Method in brief: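 In three independent experiments, Jurkat crude lysate made by Dounce homogenisation was treated for 10 min at room temperature and then 3 min at 37 °C with eight concentrations ranging from 0.1 to 10 mM. It was then solubilised with 0.8% NP40 plus benzonase for 60 min at 4 °C and ultracentrifuged. The supernatant was TMT-labelled for LC-MS/MS, and each value is the fold change against the detergent-processed vehicle for the same replicate, using vsn-normalised intensities.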

Target	NP40-soluble protein abundance (concentration: 0.1mM)	NP40-soluble protein abundance (concentration: 0.5mM)
DDX59 (UniProt Q5T1V6)	1.02 ± 0.07	1.03 ± 0.046
HECTD3 (UniProt Q5T447)	1.02 ± 0.057	1.04 ± 0.032
UniProt Q5H8A4-5|Q5H8A4-6	1.01 ± 0.019	1 ± 0.051
CEP350 (UniProt Q5VT06)	1.01 ± 0.058	0.968 ± 0.12
UniProt Q6FIF0 and related entries	0.957 ± 0.061	0.96 ± 0.08
UniProt Q684P5-2|Q684P5-3|Q684P5	0.988 ± 0.027	0.998 ± 0.036
CIAPIN1 (UniProt Q6FI81)	0.964 ± 0.023	0.98 ± 0.011
C9orf64 (UniProt Q5T6V5)	1.023 ± 0.0066	0.999 ± 0.018
UniProt Q5VVQ6 and related entries	1.07 ± 0.11	1.02 ± 0.045
MRM1 (UniProt Q6IN84)	0.994 ± 0.1	1.07 ± 0.13
COQ5 (UniProt Q5HYK3)	0.999 ± 0.099	0.973 ± 0.021
LARP2 (UniProt Q659C4)	1.07 ± 0.32	1.04 ± 0.28
ZNF326 (UniProt Q5BKZ1)	1.04 ± 0.058	1.14 ± 0.028
ANKRD39 (UniProt Q53RE8)	0.919 ± 0.04	0.952 ± 0.062
CWF19L1 (UniProt Q69YN2)	1.01 ± 0.037	1.03 ± 0.032
ALKBH5 (UniProt Q6P6C2)	1.01 ± 0.014	1.25 ± 0.032
UniProt Q5VWN6	1.17 ± 0.12	1.15 ± 0.11
UHRF1BP1 (UniProt Q6BDS2)	1.02 ± 0.04	1.07 ± 0.075
TMEM41B (UniProt Q5BJD5)	1.02 ± 0.087	0.985 ± 0.013
UniProt Q6JQN1 and related entries	1 ± 0.1	0.977 ± 0.079
CRTC2 (UniProt Q53ET0)	0.982 ± 0.043	1.06 ± 0.046

Target	NP40-soluble protein abundance (concentration: 0.1mM)	NP40-soluble protein abundance (concentration: 0.5mM)
PPP2R2D (UniProt Q66LE6)	1.08 ± 0.091	1.11 ± 0.063
LACTB2 (UniProt Q53H82)	1.03 ± 0.018	1.04 ± 0.048
UniProt Q6PCB7 and related entries	1.06 ± 0.059	1.05 ± 0.13
UBAP2 (UniProt Q5T6F2)	0.98 ± 0.016	0.968 ± 0.051
CTR9 (UniProt Q6PD62)	1.01 ± 0.055	1.02 ± 0.048
UniProt Q6GQQ9 and related entries	1.09 ± 0.032	1.05 ± 0.046
HP1BP3 (UniProt Q5SSJ5)	0.974 ± 0.018	1.03 ± 0.048
DNTTIP2 (UniProt Q5QJE6)	1.036 ± 0.0089	1.2 ± 0.033
MBLAC2 (UniProt Q68D91)	1.08 ± 0.097	1.03 ± 0.058
UniProt Q504Q3 and related entries	1.05 ± 0.077	1.05 ± 0.018
GKAP1 (UniProt Q5VSY0)	1.03 ± 0.038	1.08 ± 0.13
UniProt Q5VZE5	1.04 ± 0.096	1.06 ± 0.059
NOL9 (UniProt Q5SY16)	0.97 ± 0.054	0.919 ± 0.021
DCAF15 (UniProt Q66K64)	1.06 ± 0.099	1.04 ± 0.14
UniProt Q6P4E1 and related entries	0.908 ± 0.11	0.815 ± 0.16
EDC4 (UniProt Q6P2E9)	1 ± 0.021	1.02 ± 0.034
UniProt Q5TDH0 and related entries	1.02 ± 0.023	1.03 ± 0.054
TAF3 (UniProt Q5VWG9)	0.988 ± 0.075	1.05 ± 0.092
UniProt Q659A1	1 ± 0.12	0.984 ± 0.071
UniProt Q5TA45 and related entries	1.02 ± 0.032	1.06 ± 0.043
NT5DC1 (UniProt Q5TFE4)	1.04 ± 0.11	1.04 ± 0.057

Two entries picked at random from those above, as already listed:
Target	NP40-soluble protein abundance (concentration: 0.1mM)	NP40-soluble protein abundance (concentration: 0.5mM)
NOL9 (UniProt Q5SY16)	0.97 ± 0.054	0.919 ± 0.021
EDC4 (UniProt Q6P2E9)	1 ± 0.021	1.02 ± 0.034

The listing continues:

Target	NP40-soluble protein abundance (concentration: 0.1mM)	NP40-soluble protein abundance (concentration: 0.5mM)
UniProt Q6NTF9 and related entries	0.939 ± 0.047	0.919 ± 0.058
UniProt Q5JVF3 and related entries	1.06 ± 0.083	1.04 ± 0.082
ANKRD16 (UniProt Q6P6B7)	0.938 ± 0.1	0.96 ± 0.11
TYW3 (UniProt Q6IPR3)	0.993 ± 0.12	0.992 ± 0.11
CNNM4 (UniProt Q6P4Q7)	1.02 ± 0.044	1.03 ± 0.034
UniProt Q5EBL8 and related entries	0.976 ± 0.18	0.925 ± 0.12
UniProt Q5T5C0 and related entries	1.04 ± 0.059	1.03 ± 0.12
UniProt Q6F5E8 and related entries	0.993 ± 0.04	1.01 ± 0.048
BOLA3 (UniProt Q53S33)	1.08 ± 0.19	0.903 ± 0.094
UniProt Q5SGD2 and related entries	1.06 ± 0.022	0.954 ± 0.09
UniProt Q5T4F4-2|Q5T4F4-7|Q5T4F4-8|Q5T4F4 and related entries	0.979 ± 0.095	1 ± 0.13
UniProt Q5RI15 and related entries	1.06 ± 0.089	1.09 ± 0.17
FAM160B1 (UniProt Q5W0V3)	1.03 ± 0.011	1.04 ± 0.049
TBC1D10B (UniProt Q4KMP7)	1.01 ± 0.028	1.02 ± 0.029
LYRM7 (UniProt Q5U5X0)	0.92 ± 0.18	0.852 ± 0.22
DNAL1 (UniProt Q4LDG9)	0.961 ± 0.1	0.831 ± 0.18
Q5T3Q7 and related entries (UniProt Q9H583)	1.07 ± 0.12	1.1 ± 0.073
ERICH5 (UniProt Q6P6B1)	0.903 ± 0.071	0.897 ± 0.059
UniProt Q6P1X5 and related entries	1.06 ± 0.036	1.06 ± 0.079
UniProt Q6MZP7 and related entries	0.97 ± 0.011	1.01 ± 0.029
UniProt Q5W0B1	0.941 ± 0.063	0.898 ± 0.073
